Data source: PubChem BioAssay AID652243 (Drosophila RNAi Screening Center, 2013)
In all, the deposit lists about 24,000 reagents; below is an unselected part of those with a known target gene and a result. Of all reagents, 246 (1%) are marked active. 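Plates not normalised; calls are printed but the firefly/Renilla ratio behind them is not deposited; fold cut for lowering reported inconsistently.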 Raw values vary from plate to plate and are shown uncorrected. Entries without a mark were called inactive. The numbers tell different reagents against one gene apart. The record does not give: the amount of reagent.

Test: 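Knock-downs that decrease or increase androgen receptor reporter signal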 (primary screen)
Cells: Drosophila S2R+ cells
Knock-down reagent: long dsRNA against Drosophila genes
Timing: 72 h (48 h, then 24 h hormone)
Treatment: synthetic androgen R1881 at 10 nM for 24 h
Read-out: 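Firefly light from an androgen-responsive reporter and Renilla control light per well, raw and unnormalised, for each of two replicates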
Scale: firefly reporter light: higher = more light from androgen-responsive reporter; Renilla control light: higher = more constitutive control signal (cell number, transfection)
Rule for the call: 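Hit when the log firefly-to-Renilla ratio dropped or increased by a fixed fold versus the mean of GFP or LacZ controls across duplicate plates; lowering cut given as 1.5 and as 3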
Meaning of the calls: active = hit: reporter lowered or raised; inactive = no hit

How did the screen score CG31174?
firefly reporter light, replicate 1: 2.00e5; firefly reporter light, replicate 2: 1.56e5; Renilla control light, replicate 1: 2.06e5; Renilla control light, replicate 2: 3.04e5

With smo (smoothened) #1, what was measured?
firefly reporter light, replicate 1: 7.83e5; firefly reporter light, replicate 2: 7.66e5; Renilla control light, replicate 1: 2.44e6; Renilla control light, replicate 2: 1.37e6

With smo (smoothened) #2, what was measured?
firefly reporter light, replicate 1: 2.72e5; firefly reporter light, replicate 2: 4.36e5; Renilla control light, replicate 1: 9.49e5; Renilla control light, replicate 2: 1.53e6

For CG11353, what was measured?
firefly reporter light, replicate 1: 5.13e5; firefly reporter light, replicate 2: 8.12e5; Renilla control light, replicate 1: 1.48e6; Renilla control light, replicate 2: 2.15e6

What is on record for ACXE (Adenylyl cyclase X E)?
firefly reporter light, replicate 1: 1.98e5; firefly reporter light, replicate 2: 1.40e5; Renilla control light, replicate 1: 1.98e6; Renilla control light, replicate 2: 1.27e6

How did the screen score Ciz1 (Ciz1 zinc finger protein) #1?
firefly reporter light, replicate 1: 2.07e5; firefly reporter light, replicate 2: 2.35e5; Renilla control light, replicate 1: 1.21e6; Renilla control light, replicate 2: 8.84e5

With Ciz1 (Ciz1 zinc finger protein) #2, what does the deposit list?
firefly reporter light, replicate 1: 7.72e5; firefly reporter light, replicate 2: 7.80e5; Renilla control light, replicate 1: 8.25e5; Renilla control light, replicate 2: 8.94e5

How did the screen score IPIP (Inositol phosphatase interacting protein) #1?
firefly reporter light, replicate 1: 6.23e5; firefly reporter light, replicate 2: 7.66e5; Renilla control light, replicate 1: 2.30e6; Renilla control light, replicate 2: 2.44e6

For IPIP (Inositol phosphatase interacting protein) #2, what was measured?
firefly reporter light, replicate 1: 3.53e5; firefly reporter light, replicate 2: 3.47e5; Renilla control light, replicate 1: 6.73e5; Renilla control light, replicate 2: 2.76e5

With Obp83b (Odorant-binding protein 83b) #1, what was measured?
firefly reporter light, replicate 1: 57082; firefly reporter light, replicate 2: 39692; Renilla control light, replicate 1: 1.31e6; Renilla control light, replicate 2: 8.65e5

With Obp83b (Odorant-binding protein 83b) #2, what does the deposit list?
firefly reporter light, replicate 1: 4.05e5; firefly reporter light, replicate 2: 3.73e5; Renilla control light, replicate 1: 4.10e5; Renilla control light, replicate 2: 4.45e5

What is on record for CG31715?
firefly reporter light, replicate 1: 1.14e6; firefly reporter light, replicate 2: 9.00e5; Renilla control light, replicate 1: 1.38e6; Renilla control light, replicate 2: 8.91e5

Ordered by “firefly reporter light, replicate 2” (highest first): 2 of the entries above.
Obp83b (Odorant-binding protein 83b) #2: firefly reporter light, replicate 1 = 4.05e5; firefly reporter light, replicate 2 = 3.73e5; Renilla control light, replicate 1 = 4.10e5; Renilla control light, replicate 2 = 4.45e5
Obp83b (Odorant-binding protein 83b) #1: firefly reporter light, replicate 1 = 57082; firefly reporter light, replicate 2 = 39692; Renilla control light, replicate 1 = 1.31e6; Renilla control light, replicate 2 = 8.65e5
